Read-outs that look alike come from different tables or passages of the source.
How the values were obtained:
in vivo = assay: in vivo
Procedure: From these toxicity profiles the NOAEL and the LOAEL were determined. Exposure experiments were performed in Pyrex® beakers, each containing 200 mL of AFW at 15 °C and ten adult animals (> 5 mg wet weight, ww). Live/dead animals were counted after 24 h by gently prodding and observing movement of appendages. The pharmaceutical concentrations tested were in the range of 0.01 to 250 mg L^− 1. […] Concentrations where 100, 50 and 0% of the animals died were repeated in duplicate or triplicate.

Thamnocephalus platyurus = conditions: ref Kim et al., 2009; cited from earlier work

Row | SMILES | LC50 at 24 h (in vivo) | LC50 at 24 h (in vivo; Gammarus pulex) | 24 h- LC50 T. platyurus (Thamnocephalus platyurus)
1 | NS(=O)(=O)c1cc(C(=O)O)c(NCc2ccco2)cc1Cl [Furosemide] | > 73.1 µg/mL |  | 
2 | CC(C)NCC(O)COc1ccc(CC(N)=O)cc1 (stereo not drawn) [Atenolol] |  | > 100 µg/mL | >100 µg/mL

From publication PMC4912218, “Targeted metabolomics of Gammarus pulex following controlled exposures to selected pharmaceuticals in water” (The Science of the Total Environment, 2016)
